Measured values reported in patent US20160090556A1, “PRODUCTS COMPRISING MALODOR REDUCTION MATERIALS” (The Procter & Gamble Company, priority 2014, published 2016).

Experiment: Melamine formaldehyde PMC leakage
Conditions: for Comment Code: Melamine formaldehyde PMC leakage: code letter J

Row | SMILES | Melamine formaldehyde PMC leakage (Comment Code J) | Comment Code: Melamine formaldehyde PMC leakage
1 | COC1(C)CCC23CC1C(C)(C)C2CCC3C (centres unmarked) [Material 565] | J (Melamine formaldehyde PMC leakage less than or equal to 5%) | J (Melamine formaldehyde PMC leakage less than or equal to 5%)
2 | CC1CCC2C(C)(C)C3CC12CCC3(C)OC=O (centres unmarked) [Material 566] | J (Melamine formaldehyde PMC leakage less than or equal to 5%) | J (Melamine formaldehyde PMC leakage less than or equal to 5%)
3 | CC(=O)O[C@]1(C)CC[C@@]23C[C@@H]1C(C)(C)[C@@H]2CC[C@H]3C [Material 567] | J (Melamine formaldehyde PMC leakage less than or equal to 5%) | J (Melamine formaldehyde PMC leakage less than or equal to 5%)
4 | C[C@@H]1CC[C@H]2C(C)(C)[C@H]3C[C@@]12CC[C@@]3(C)O [Material 569] | J (Melamine formaldehyde PMC leakage less than or equal to 5%) | J (Melamine formaldehyde PMC leakage less than or equal to 5%)
5 | CC1=CCC(C23CCCC(C)(C2)OC3)C1(C)C (centres unmarked) [Material 570] | J (Melamine formaldehyde PMC leakage less than or equal to 5%) | J (Melamine formaldehyde PMC leakage less than or equal to 5%)
6 | CC1=CCC(C23CCCC(C)(C2)OC3)C1(C)C (centres unmarked) [Material 571] | J (Melamine formaldehyde PMC leakage less than or equal to 5%) | –
7 | CC(=O)OC12CCCC(C)(CCC3C1CC3(C)C)C2 (centres unmarked) [Material 573] | J (Melamine formaldehyde PMC leakage less than or equal to 5%) | J (Melamine formaldehyde PMC leakage less than or equal to 5%)
8 | CC12CCCC(O)(C1)C1CC(C)(C)C1CC2 (centres unmarked) [Material 574] | J (Melamine formaldehyde PMC leakage less than or equal to 5%) | J (Melamine formaldehyde PMC leakage less than or equal to 5%)
9 | CCCCCCCCCC(=O)O [Material 582] | J (Melamine formaldehyde PMC leakage less than or equal to 5%) | –
10 | COc1ccc(CC(C)C=O)cc1 (centres unmarked) [Material 586] | J (Melamine formaldehyde PMC leakage less than or equal to 5%) | –
11 | CCCCCC1CC(=O)C=C(C)C1C(=O)OCC (centres unmarked) [Material 591] | J (Melamine formaldehyde PMC leakage less than or equal to 5%) | –
12 | Cc1cc(C(C)(C)C)c(O)c(C(C)(C)C)c1 [Material 592] | J (Melamine formaldehyde PMC leakage less than or equal to 5%) | –
13 | CCCCCCCCCCCCCCCCCC(=O)OCCCC [Material 594] | J (Melamine formaldehyde PMC leakage less than or equal to 5%) | –
14 | CCCCOC(=O)C(C)OC(=O)CCC (centres unmarked) [Material 595] | J (Melamine formaldehyde PMC leakage less than or equal to 5%) | –
15 | C=CCCCCCCCCC(=O)OCCCC [Material 599] | J (Melamine formaldehyde PMC leakage less than or equal to 5%) | –
16 | CC1=CCC(CCC(C)CO)C1(C)C (centres unmarked) [Material 600] | J (Melamine formaldehyde PMC leakage less than or equal to 5%) | –
17 | CC(C)(C)c1ccc(CCC=O)cc1 [Material 601] | J (Melamine formaldehyde PMC leakage less than or equal to 5%) | –
18 | CC1=C(C/C=C(\C)C=O)C(C)(C)CCC1 [Material 602] | – | J (Melamine formaldehyde PMC leakage less than or equal to 5%)
19 | C=C1C2CCC(C)(OCC)C1CCC2(C)C (centres unmarked) [Material 606] | J (Melamine formaldehyde PMC leakage less than or equal to 5%) | –

Row | SMILES | Melamine formaldehyde PMC leakage (Comment Code J) | Comment Code: Melamine formaldehyde PMC leakage
20 | CCOCOC1CCCCCCCCCCC1 [Material 607] | J (Melamine formaldehyde PMC leakage less than or equal to 5%) | –
21 | CC(C)=CCCC(C)=C1CC=C(C)CC1 [Material 608] | J (Melamine formaldehyde PMC leakage less than or equal to 5%) | –
22 | CC1=CC(=O)CC(C)C12CCC(=C(C)C)C2 (centres unmarked) [Material 610] | J (Melamine formaldehyde PMC leakage less than or equal to 5%) | –
23 | C=C(C)C1CCC(C)(OC(C)=O)CC1 (centres unmarked) [Material 611] | J (Melamine formaldehyde PMC leakage less than or equal to 5%) | –
24 | C=CC(=C)CCC=C(C)CCC=C(C)C=O [Material 613] | J (Melamine formaldehyde PMC leakage less than or equal to 5%) | –
25 | C=C1C=CC(C(C)CCC=C(C)C)CC1 (centres unmarked) [Material 614] | J (Melamine formaldehyde PMC leakage less than or equal to 5%) | –
26 | C=C(C)C1CCC2(C)CCCC(=C)C2C1 (centres unmarked) [Material 615] | J (Melamine formaldehyde PMC leakage less than or equal to 5%) | –
27 | C=C1C2CCC(C2)C1(C)CCC=C(C)CO (centres unmarked) [Material 616] | J (Melamine formaldehyde PMC leakage less than or equal to 5%) | J (Melamine formaldehyde PMC leakage less than or equal to 5%)
28 | C=C1CCC2CC1C2(C)C (centres unmarked) [Material 618] | J (Melamine formaldehyde PMC leakage less than or equal to 5%) | –
29 | CCOc1ccc2ccccc2c1 [Material 620] | J (Melamine formaldehyde PMC leakage less than or equal to 5%) | –
30 | CC1CCC2=C1CC1CCC2(C)C1(C)C (centres unmarked) [Material 621] | J (Melamine formaldehyde PMC leakage less than or equal to 5%) | J (Melamine formaldehyde PMC leakage less than or equal to 5%)
31 | CC1=C2CCC3(C)OC3C2C(C)(C)CCC1 (centres unmarked) [Material 624] | J (Melamine formaldehyde PMC leakage less than or equal to 5%) | J (Melamine formaldehyde PMC leakage less than or equal to 5%)
32 | CC1=CC2C(=C(C)CCCC2(C)C)CC1 (centres unmarked) [Material 625] | J (Melamine formaldehyde PMC leakage less than or equal to 5%) | –
33 | CC(C)=C1CCC(C)C2=C(C1)C(C)CC2 (centres unmarked) [Material 626] | J (Melamine formaldehyde PMC leakage less than or equal to 5%) | –
34 | COC(Cc1ccccc1)OC [Material 627] | J (Melamine formaldehyde PMC leakage less than or equal to 5%) | J (Melamine formaldehyde PMC leakage less than or equal to 5%)
35 | C=CC(=C)CCC=C(C)CCC=C(C)C [Material 628] | J (Melamine formaldehyde PMC leakage less than or equal to 5%) | –
36 | C=C1CCC2C3C(C(C)C)CCC2(C)C13 (centres unmarked) [Material 631] | J (Melamine formaldehyde PMC leakage less than or equal to 5%) | J (Melamine formaldehyde PMC leakage less than or equal to 5%)
37 | C=C1CCC23CC1C(C)(C)C2CCC3C (centres unmarked) [Material 632] | J (Melamine formaldehyde PMC leakage less than or equal to 5%) | J (Melamine formaldehyde PMC leakage less than or equal to 5%)
38 | C=C1CCC=C(C)CCC2C1CC2(C)C (centres unmarked) [Material 633] | J (Melamine formaldehyde PMC leakage less than or equal to 5%) | –

Row | SMILES | Melamine formaldehyde PMC leakage (Comment Code J) | Comment Code: Melamine formaldehyde PMC leakage
39 | COc1c2ccoc2cc2oc(=O)ccc12 [Material 638] | J (Melamine formaldehyde PMC leakage less than or equal to 5%) | –
40 | CC(C)(O)CCc1ccccc1 [Material 639] | J (Melamine formaldehyde PMC leakage less than or equal to 5%) | –
41 | O=C(OCc1ccccc1)c1ccccc1O [Material 641] | – | J (Melamine formaldehyde PMC leakage less than or equal to 5%)
42 | CCCCCCCCCCCC(=O)OCc1ccccc1 [Material 644] | J (Melamine formaldehyde PMC leakage less than or equal to 5%) | –
43 | CC(C)CC(=O)OCc1ccccc1 [Material 645] | – | J (Melamine formaldehyde PMC leakage less than or equal to 5%)
44 | CC(C)C(=O)OCc1ccccc1 [Material 647] | – | J (Melamine formaldehyde PMC leakage less than or equal to 5%)
45 | O=C(/C=C/c1ccccc1)OCc1ccccc1 [Material 650] | J (Melamine formaldehyde PMC leakage less than or equal to 5%) | –
46 | O=C(OCc1ccccc1)c1ccccc1 [Material 653] | J (Melamine formaldehyde PMC leakage less than or equal to 5%) | –
47 | CC(C)CCc1ccc2c(c1)OCC(=O)CO2 [Material 658] | J (Melamine formaldehyde PMC leakage less than or equal to 5%) | –
48 | CC(C)C1OCCC2(CC3CCC2(C)C3(C)C)O1 (centres unmarked) [Material 659] | J (Melamine formaldehyde PMC leakage less than or equal to 5%) | J (Melamine formaldehyde PMC leakage less than or equal to 5%)
49 | CC(C)=CCCC1=CCC(C#N)CC1 (centres unmarked) [Material 660] | J (Melamine formaldehyde PMC leakage less than or equal to 5%) | –
50 | COC(=O)c1ccccc1N=CCC(C)CCCC(C)(C)O (centres unmarked) [Material 661] | J (Melamine formaldehyde PMC leakage less than or equal to 5%) | –
51 | COc1ccc(COC(=O)Cc2ccccc2)cc1 [Material 663] | J (Melamine formaldehyde PMC leakage less than or equal to 5%) | –
52 | CCCCCOC(=O)C=Cc1ccccc1 [Material 671] | J (Melamine formaldehyde PMC leakage less than or equal to 5%) | –
53 | CCCCCOC(=O)c1ccccc1 [Material 672] | – | J (Melamine formaldehyde PMC leakage less than or equal to 5%)
54 | CC1(C)CCCC2(C)C1CCC1(C)OCCC12 (centres unmarked) [Material 673] | J (Melamine formaldehyde PMC leakage less than or equal to 5%) | –
55 | C[C@@H]1CC[C@H]2C(C)(C)[C@H]3C[C@@]12CC1OC(C)(C)OC13C (some centres unmarked) [Material 674] | J (Melamine formaldehyde PMC leakage less than or equal to 5%) | J (Melamine formaldehyde PMC leakage less than or equal to 5%)
56 | CC1(O)CCC2=C(CCCC2(C)C)C1 (centres unmarked) [Material 675] | J (Melamine formaldehyde PMC leakage less than or equal to 5%) | –
